Test results published in paper PMC6557511.

Experiments:
[1] = biological target: T1, TDRD9 (rat (endogenous in 19dpc embryo testes)) (UniProt Q3MHU3); assay: co-IP; Pierce Co-Immunoprecipitation Kit; extract of 30 testes of 19dpc rat embryos incubated overnight at 4°C in spin columns baited with anti-DAZL or anti-TDRD9 antibody; elution product analysed by Western blot; bait not eluted from the column; n = 3
T1 sequence: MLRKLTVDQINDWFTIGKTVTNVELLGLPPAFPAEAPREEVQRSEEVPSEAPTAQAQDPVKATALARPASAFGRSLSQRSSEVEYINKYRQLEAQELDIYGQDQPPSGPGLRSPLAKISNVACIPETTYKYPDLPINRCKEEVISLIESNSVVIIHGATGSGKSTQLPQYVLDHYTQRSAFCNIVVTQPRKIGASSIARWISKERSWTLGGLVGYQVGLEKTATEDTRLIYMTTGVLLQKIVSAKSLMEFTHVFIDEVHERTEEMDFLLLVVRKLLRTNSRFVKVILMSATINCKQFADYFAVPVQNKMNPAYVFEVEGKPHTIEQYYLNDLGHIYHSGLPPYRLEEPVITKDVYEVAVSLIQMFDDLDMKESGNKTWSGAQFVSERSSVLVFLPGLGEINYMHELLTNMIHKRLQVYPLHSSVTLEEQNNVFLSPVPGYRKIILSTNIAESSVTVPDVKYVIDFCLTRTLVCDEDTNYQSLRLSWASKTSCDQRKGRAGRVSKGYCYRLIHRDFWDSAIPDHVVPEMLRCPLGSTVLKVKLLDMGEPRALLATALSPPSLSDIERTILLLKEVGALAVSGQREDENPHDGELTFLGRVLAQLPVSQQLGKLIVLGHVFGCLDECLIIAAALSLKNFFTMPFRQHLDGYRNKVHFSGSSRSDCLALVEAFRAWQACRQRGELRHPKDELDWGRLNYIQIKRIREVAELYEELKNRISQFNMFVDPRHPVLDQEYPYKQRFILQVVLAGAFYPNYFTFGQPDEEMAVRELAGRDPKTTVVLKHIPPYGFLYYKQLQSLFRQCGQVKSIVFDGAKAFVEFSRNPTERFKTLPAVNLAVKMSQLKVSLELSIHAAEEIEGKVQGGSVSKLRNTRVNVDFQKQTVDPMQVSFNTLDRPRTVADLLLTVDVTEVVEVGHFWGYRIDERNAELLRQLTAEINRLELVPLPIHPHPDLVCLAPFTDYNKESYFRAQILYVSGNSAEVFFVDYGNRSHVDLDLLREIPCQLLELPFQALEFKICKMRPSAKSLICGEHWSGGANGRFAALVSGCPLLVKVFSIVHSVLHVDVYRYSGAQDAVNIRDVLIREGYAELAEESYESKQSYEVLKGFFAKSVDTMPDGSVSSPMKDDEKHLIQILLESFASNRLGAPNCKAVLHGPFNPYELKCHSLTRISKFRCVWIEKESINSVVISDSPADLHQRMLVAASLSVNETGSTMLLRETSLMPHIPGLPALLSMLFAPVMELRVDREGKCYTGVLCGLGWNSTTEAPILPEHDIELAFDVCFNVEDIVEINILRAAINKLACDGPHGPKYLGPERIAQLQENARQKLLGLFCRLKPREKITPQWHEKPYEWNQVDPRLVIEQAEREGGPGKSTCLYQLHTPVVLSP

[2] = biological target: DAZL (rat (endogenous in 19dpc embryo testes)); assay: as above

binding [1]: no binding
Molecule: MAEL (rat (endogenous in 19dpc embryo testes))

binding [2]: no binding
B1: TDRD9 (protein, UniProt Q3MHU3 1-1384)
chain: T1 sequence

binding [2]: binds
B2: PIWIL4 (protein, UniProt Q4G033 1-848)
chain: MSGRARVRARGITTGHSAREVERAPRDLMVTSVSPGDNEASSRTSVISQPHELGVSSGDGRRTLVEKRGNGRQDFVDLGVCTREKLTHVKDSKTGSSGIPVQLATNLFHLDLPQDWQLYQYHVTYSPDLASRRLRTALLYNHSILSDKAKAFDGTSLFLSEKLDHKVTELTSETQRGETVKITLTLTSELFPNSPMCIQFFNVIFRKIFKKLSMYQIGRNYYKPSEPVEIPQYKLSLWPGFAISVSRFESKLLVNADVNYKVLRNETVLEFMTDLCLRTDMSCFTETCHKQLVGLIVLTRYNNKTYRIDDIDWSVKPTHAFQKRDGSETTYVDYYKQQYDITLSDLNQPVLVSLLKRRRNDNSEPQMVHLIPELCFLTGLTSQATSDFRLMKAVAEETRLSPMGRQQQLARLADDIQRNQVTRFELETWGLHFGSQLSLTGRVVPSEKILLQDHTCQPAFAADWSKDMRSCKVLSSEPLNTWLIVCCSRAEHLIESFLSCLRRVGGSTGFSVGHPKIIKVDENPAAFLRAIQLHVNPDVQLVMCILPSNQKNYYDSIKRYLSSDCPVPSQCVLTRTLNKQGMMLSVATKIAMQMTCKLGGELWAVEIPLKSLMVVGIDICRDALSKDVAVVGFVASINSRITRWFSRCVLQRTAADIADCLKVCMTGALNKWYKHNHDLPARIIAYRDGVGNGQLKAVLEYEVPQLLSSVTECGSDARSCRLSVVVVRKRCLLRLFAESGHTLQNPPLGTVVDSEATRPEWYDFYLTSQTANRGTVSPTYYNVIYDDNALKPDHMQRLTFKLCHLYYNWQGVISVPAPCQYAHKLTFLVAQSIHKEPSLELANKLFYL

Results are given in words; binding and its absence hold for the method and conditions named. Binding seen in cells or lysates may run through a third protein. For part of these data: Binding calls can cover weak binding; strength is not graded here. One block for each molecule: values may come before it.
